Measurements taken from paper PMC12155415.
Results are given in words; binding and its absence hold for the method and conditions named. In cells and extracts the contact can be indirect. A yes stands for co-enrichment or nearness to the bait. Other partners may have been found.

By UniProt entry, the sequences of proteins in these tests, tags left out.
UniProt Q92598: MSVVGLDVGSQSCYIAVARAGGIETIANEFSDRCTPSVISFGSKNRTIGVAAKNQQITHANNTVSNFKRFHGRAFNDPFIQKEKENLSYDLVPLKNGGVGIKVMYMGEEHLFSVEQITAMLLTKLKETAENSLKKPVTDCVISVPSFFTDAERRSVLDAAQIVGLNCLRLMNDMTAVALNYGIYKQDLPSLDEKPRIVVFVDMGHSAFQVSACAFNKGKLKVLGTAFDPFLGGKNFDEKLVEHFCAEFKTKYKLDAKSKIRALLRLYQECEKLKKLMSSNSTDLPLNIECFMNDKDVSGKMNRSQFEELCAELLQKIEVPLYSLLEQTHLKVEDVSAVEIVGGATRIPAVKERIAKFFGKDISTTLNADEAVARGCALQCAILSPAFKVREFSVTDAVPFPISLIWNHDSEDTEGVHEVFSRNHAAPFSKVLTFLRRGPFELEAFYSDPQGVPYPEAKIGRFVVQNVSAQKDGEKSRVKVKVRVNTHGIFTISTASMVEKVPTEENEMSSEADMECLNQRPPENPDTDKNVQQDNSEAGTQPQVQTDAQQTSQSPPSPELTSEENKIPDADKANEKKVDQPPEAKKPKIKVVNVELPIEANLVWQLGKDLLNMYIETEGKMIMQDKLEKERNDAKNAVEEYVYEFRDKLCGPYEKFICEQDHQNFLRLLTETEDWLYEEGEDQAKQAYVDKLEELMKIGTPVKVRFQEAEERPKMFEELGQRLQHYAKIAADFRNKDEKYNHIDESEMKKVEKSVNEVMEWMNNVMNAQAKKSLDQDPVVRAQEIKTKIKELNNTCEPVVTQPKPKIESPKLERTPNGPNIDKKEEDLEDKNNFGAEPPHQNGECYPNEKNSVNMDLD
UniProt P11940: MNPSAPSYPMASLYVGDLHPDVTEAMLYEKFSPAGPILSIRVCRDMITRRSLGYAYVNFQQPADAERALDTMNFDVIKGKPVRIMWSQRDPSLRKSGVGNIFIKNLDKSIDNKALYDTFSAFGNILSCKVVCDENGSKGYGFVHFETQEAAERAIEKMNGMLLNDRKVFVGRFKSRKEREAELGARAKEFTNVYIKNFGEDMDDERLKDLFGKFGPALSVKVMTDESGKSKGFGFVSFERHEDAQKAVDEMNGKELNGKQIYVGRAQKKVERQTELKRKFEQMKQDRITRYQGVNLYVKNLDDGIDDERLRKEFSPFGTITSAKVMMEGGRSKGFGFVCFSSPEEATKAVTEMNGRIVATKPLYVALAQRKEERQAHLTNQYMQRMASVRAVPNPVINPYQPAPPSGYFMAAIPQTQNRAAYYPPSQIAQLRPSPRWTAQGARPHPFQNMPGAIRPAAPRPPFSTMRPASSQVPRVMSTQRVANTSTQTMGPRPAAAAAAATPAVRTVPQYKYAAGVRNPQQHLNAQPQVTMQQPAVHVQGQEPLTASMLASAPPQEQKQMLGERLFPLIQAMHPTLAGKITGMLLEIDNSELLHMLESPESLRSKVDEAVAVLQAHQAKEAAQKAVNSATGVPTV
UniProt Q9NRL2: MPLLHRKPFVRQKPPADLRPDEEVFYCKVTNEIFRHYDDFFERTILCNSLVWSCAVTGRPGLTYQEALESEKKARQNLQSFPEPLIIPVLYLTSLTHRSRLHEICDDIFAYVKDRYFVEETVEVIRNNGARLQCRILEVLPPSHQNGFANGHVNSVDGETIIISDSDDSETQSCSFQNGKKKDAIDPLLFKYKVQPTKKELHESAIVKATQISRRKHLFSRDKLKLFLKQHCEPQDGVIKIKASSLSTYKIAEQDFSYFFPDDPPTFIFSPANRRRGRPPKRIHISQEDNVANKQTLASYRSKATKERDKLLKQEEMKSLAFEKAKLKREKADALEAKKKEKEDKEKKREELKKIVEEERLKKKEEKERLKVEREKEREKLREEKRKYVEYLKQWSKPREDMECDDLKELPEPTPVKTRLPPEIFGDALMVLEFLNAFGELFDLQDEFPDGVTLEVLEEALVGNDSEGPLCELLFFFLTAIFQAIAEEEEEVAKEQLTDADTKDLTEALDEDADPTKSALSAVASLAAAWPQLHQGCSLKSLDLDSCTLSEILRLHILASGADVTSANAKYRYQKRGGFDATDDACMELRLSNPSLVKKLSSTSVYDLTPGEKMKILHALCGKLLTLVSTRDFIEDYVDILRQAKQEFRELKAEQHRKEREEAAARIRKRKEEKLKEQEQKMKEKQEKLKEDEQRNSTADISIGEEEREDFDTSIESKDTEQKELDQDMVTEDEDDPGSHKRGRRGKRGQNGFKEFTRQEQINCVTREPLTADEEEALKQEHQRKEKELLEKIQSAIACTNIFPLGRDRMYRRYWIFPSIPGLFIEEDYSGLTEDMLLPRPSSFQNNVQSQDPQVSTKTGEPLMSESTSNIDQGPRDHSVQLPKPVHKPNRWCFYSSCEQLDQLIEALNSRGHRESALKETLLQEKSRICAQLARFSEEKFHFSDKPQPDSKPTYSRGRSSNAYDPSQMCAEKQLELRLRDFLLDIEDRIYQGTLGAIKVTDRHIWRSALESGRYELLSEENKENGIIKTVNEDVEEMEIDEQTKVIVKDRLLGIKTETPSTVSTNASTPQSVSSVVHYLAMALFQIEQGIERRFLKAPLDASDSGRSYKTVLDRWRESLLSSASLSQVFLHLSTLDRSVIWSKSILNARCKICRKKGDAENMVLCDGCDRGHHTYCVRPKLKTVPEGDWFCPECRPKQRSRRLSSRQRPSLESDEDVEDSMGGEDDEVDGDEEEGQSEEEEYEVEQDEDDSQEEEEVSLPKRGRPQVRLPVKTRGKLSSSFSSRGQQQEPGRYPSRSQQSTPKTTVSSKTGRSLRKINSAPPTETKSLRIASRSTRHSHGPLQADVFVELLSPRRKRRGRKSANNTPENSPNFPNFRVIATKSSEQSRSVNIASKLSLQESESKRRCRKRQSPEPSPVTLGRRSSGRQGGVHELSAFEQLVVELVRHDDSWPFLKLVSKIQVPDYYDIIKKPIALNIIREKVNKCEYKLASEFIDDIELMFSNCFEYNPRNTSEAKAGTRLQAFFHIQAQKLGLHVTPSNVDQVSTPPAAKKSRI
UniProt Q03113: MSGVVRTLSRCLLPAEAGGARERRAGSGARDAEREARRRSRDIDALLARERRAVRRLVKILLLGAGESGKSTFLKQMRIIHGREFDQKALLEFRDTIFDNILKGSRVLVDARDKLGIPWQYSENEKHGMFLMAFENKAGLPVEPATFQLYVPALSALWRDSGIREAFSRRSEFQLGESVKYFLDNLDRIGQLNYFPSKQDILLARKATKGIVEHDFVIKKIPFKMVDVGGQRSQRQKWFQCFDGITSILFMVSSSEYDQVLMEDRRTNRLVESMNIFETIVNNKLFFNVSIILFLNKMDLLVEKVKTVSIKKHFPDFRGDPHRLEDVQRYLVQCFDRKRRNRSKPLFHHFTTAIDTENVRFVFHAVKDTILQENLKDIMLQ
UniProt P17066: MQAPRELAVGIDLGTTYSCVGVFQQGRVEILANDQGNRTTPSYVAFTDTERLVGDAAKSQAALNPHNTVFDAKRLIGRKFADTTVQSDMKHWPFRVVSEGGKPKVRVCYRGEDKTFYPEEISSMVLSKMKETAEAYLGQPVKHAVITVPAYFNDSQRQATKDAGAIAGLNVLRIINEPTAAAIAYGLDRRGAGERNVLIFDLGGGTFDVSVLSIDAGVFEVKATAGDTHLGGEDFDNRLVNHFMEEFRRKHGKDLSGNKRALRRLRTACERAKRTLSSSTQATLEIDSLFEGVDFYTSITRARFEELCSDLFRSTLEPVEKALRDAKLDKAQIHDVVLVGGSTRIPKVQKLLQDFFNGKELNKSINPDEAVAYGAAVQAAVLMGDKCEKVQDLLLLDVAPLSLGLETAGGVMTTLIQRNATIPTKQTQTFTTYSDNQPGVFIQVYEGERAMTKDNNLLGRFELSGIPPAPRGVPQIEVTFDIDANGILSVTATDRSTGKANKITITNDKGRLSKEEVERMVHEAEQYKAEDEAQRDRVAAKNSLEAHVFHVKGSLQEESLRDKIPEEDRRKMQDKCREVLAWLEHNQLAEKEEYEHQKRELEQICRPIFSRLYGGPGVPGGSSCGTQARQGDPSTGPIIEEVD
UniProt Q8TAQ2: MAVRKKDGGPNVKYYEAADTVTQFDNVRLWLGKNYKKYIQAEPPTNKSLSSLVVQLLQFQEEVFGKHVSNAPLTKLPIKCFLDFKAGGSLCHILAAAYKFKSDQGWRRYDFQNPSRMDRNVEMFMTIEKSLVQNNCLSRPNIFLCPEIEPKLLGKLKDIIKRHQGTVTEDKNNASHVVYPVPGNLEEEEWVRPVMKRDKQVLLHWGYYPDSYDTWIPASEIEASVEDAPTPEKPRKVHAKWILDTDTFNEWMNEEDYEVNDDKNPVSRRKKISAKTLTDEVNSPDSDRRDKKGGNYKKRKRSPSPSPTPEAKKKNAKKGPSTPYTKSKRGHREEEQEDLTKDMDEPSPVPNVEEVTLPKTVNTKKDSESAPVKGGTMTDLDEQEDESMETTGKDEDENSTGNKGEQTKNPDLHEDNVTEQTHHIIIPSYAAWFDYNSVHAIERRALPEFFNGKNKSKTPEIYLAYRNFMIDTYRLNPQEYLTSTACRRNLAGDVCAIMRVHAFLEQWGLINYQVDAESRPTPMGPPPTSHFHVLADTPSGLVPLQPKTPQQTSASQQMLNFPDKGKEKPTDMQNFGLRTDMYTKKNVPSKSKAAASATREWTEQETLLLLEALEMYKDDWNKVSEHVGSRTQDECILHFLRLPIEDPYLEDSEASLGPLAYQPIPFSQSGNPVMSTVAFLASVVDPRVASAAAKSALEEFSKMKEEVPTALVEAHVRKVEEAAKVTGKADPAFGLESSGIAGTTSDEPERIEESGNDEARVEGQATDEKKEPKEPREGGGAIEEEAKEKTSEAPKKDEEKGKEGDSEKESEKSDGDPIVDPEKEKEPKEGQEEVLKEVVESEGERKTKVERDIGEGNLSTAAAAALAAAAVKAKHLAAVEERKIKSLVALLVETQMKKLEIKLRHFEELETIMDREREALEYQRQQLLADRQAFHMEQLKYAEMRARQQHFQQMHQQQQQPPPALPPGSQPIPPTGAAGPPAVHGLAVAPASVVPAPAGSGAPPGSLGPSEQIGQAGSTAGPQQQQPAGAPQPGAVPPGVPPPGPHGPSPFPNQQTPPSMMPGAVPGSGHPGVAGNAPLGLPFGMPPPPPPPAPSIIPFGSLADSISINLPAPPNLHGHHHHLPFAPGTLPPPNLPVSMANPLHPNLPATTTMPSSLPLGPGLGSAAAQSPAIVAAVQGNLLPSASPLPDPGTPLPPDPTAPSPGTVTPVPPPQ
UniProt Q969G3: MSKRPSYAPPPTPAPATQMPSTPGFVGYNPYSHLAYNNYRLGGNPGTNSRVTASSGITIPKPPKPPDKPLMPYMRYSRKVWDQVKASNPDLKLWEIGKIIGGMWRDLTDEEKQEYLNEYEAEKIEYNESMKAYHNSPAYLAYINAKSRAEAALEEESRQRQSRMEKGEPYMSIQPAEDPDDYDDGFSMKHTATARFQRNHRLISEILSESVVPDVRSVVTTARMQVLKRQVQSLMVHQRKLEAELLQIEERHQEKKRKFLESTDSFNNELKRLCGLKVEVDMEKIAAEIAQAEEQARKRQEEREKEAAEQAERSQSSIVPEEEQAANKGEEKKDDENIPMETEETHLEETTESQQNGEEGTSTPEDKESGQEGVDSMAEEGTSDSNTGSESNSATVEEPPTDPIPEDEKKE
UniProt P31943: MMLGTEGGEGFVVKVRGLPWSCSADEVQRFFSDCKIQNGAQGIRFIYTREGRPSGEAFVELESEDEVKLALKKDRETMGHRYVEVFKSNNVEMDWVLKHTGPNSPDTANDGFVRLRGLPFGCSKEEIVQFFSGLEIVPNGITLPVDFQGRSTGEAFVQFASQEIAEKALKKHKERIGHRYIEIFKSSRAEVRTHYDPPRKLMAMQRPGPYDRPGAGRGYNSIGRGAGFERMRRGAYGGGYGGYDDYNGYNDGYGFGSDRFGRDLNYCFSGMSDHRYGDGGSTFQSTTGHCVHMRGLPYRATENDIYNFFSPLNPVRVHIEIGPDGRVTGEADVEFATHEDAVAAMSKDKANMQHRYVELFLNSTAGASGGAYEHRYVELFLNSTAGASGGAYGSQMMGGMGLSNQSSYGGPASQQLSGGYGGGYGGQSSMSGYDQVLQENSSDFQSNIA
UniProt P57721: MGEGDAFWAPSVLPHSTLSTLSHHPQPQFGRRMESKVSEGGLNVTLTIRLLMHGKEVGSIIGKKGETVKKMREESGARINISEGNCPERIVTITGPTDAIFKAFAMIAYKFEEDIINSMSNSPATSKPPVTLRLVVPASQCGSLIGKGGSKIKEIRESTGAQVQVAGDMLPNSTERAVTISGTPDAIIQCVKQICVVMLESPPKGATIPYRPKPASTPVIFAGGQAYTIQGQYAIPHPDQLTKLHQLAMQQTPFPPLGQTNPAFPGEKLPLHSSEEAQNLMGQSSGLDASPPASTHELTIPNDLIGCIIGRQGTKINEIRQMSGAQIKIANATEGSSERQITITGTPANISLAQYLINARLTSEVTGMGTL

B1: hnRNP M (protein, UniProt P52272 1-730)
chain: MAAGVEAAAEVAATEIKMEEESGAPGVPSGNGAPGPKGEGERPAQNEKRKEKNIKRGGNRFEPYANPTKRYRAFITNIPFDVKWQSLKDLVKEKVGEVTYVELLMDAEGKSRGCAVVEFKMEESMKKAAEVLNKHSLSGRPLKVKEDPDGEHARRAMQKVMATTGGMGMGPGGPGMITIPPSILNNPNIPNEIIHALQAGRLGSTVFVANLDYKVGWKKLKEVFSMAGVVVRADILEDKDGKSRGIGTVTFEQSIEAVQAISMFNGQLLFDRPMHVKMDERALPKGDFFPPERPQQLPHGLGGIGMGLGPGGQPIDANHLNKGIGMGNIGPAGMGMEGIGFGINKMGGMEGPFGGGMENMGRFGSGMNMGRINEILSNALKRGEIIAKQGGGGGGGSVPGIERMGPGIDRLGGAGMERMGAGLGHGMDRVGSEIERMGLVMDRMGSVERMGSGIERMGPLGLDHMASSIERMGQTMERIGSGVERMGAGMGFGLERMAAPIDRVGQTIERMGSGVERMGPAIERMGLSMERMVPAGMGAGLERMGPVMDRMATGLERMGANNLERMGLERMGANSLERMGLERMGANSLERMGPAMGPALGAGIERMGLAMGGGGGASFDRAIEMERGNFGGSFAGSFGGAGGHAPGVARKACQIFVRNLPFDFTWKMLKDKFNECGHVLYADIKMENGKSKGCGVVKFESPEVAERACRMMNGMKLSGREIDVRIDRNA
B2: hnRNP A0 (protein, UniProt Q13151 1-305)
chain: MENSQLCKLFIGGLNVQTSESGLRGHFEAFGTLTDCVVVVNPQTKRSRCFGFVTYSNVEEADAAMAASPHAVDGNTVELKRAVSREDSARPGAHAKVKKLFVGGLKGDVAEGDLIEHFSQFGTVEKAEIIADKQSGKKRGFGFVYFQNHDAADKAAVVKFHPIQGHRVEVKKAVPKEDIYSGGGGGGSRSSRGGRGGRGRGGGRDQNGLSKGGGGGYNSYGGYGGGGGGGYNAYGGGGGGSSYGGSDYGNGFGGFGSYSQHQSSYGPMKSGGGGGGGGSSWGGRSNSGPYRGGYGGGGGYGGSSF
B3: COAA or RNA-BP14 (protein, UniProt Q96PK6 1-669)
chain: MKIFVGNVDGADTTPEELAALFAPYGTVMSCAVMKQFAFVHMRENAGALRAIEALHGHELRPGRALVVEMSRPRPLNTWKIFVGNVSAACTSQELRSLFERRGRVIECDVVKDYAFVHMEKEADAKAAIAQLNGKEVKGKRINVELSTKGQKKGPGLAVQSGDKTKKPGAGDTAFPGTGGFSATFDYQQAFGNSTGGFDGQARQPTPPFFGRDRSPLRRSPPRASYVAPLTAQPATYRAQPSVSLGAAYRAQPSASLGVGYRTQPMTAQAASYRAQPSVSLGAPYRGQLASPSSQSAAASSLGPYGGAQPSASALSSYGGQAAAASSLNSYGAQGSSLASYGNQPSSYGAQAASSYGVRAAASSYNTQGAASSLGSYGAQAASYGAQSAASSLAYGAQAASYNAQPSASYNAQSAPYAAQQAASYSSQPAAYVAQPATAAAYASQPAAYAAQATTPMAGSYGAQPVVQTQLNSYGAQASMGLSGSYGAQSAAAATGSYGAAAAYGAQPSATLAAPYRTQSSASLAASYAAQQHPQAAASYRGQPGNAYDGAGQPSAAYLSMSQGAVANANSTPPPYERTRLSPPRASYDDPYKKAVAMSKRYGSDRRLAELSDYRRLSESQLSFRRSPTKSSLDYRRLPDAHSDYARYSGSYNDYLRAAQMHSGYQRRM
B4: CFA/TBCA (protein, UniProt O75347 1-108)
chain: MADPRVRQIKIKTGVVKRLVKEKVMYEKEAKQQEEKIEKMRAEDGENYDIKKQAEILQESRMMIPDCQRRLEAAYLDLQRILENEKDLEEAEEYKEARLVLDSVKLEA

Biological target: HSP110 (endogenous, SW480 cells) (human (endogenous in SW480)) (UniProt Q92598)
Assay: affinity purification with mass spectrometry; anti-HSP110 antibody (control IgG) with protein A/G agarose on the nuclear-enriched fraction of SW480 cells, untreated or 200 µM TMZ for 48 h; in-gel trypsin digest, ESI-TRAP (LTQ-Orbitrap Elite), Mascot

binding | Molecule
binds | ABP1 (from UniProt P11940 1-636)
binds | ACF1/BAZ1A (from UniProt Q9NRL2 1-1556)
binds | ASAP2/PAP (from UniProt O43150 1-1006)
binds | DNA-PKcs/DNPK1 (from UniProt P78527 1-4128)
binds | FXR1 (from UniProt P51114 1-621)
binds | Gα12 (from UniProt Q03113 1-381)
binds | HSP70 (from UniProt P17066 1-643)
binds | KRas (from UniProt P01116 1-189)
binds | Nucleophosmin (from UniProt P06748 1-294)
binds | PBRM1/BAF180 (from UniProt Q86U86 1-1689)
binds | SMARCB1/SNF5 (from UniProt Q12824 1-385)
binds | SMARCC2/BAF170 (endogenous, SW480 cells) (from UniProt Q8TAQ2 1-1214)
binds | SMARCE1/BAF57 (from UniProt Q969G3 1-411)
binds | hnRNP H (from UniProt P31943 1-449)
binds | hnRNP K (from UniProt P61978 1-463)
binds | αCP3 (from UniProt P57721 1-371)
binds | B1
binds | B2
binds | B3
binds | B4
